Amino acid sequences for entries named in this document (tags omitted). A change or cut given only in a name is not applied to a line headed by its entry.
UniProt Q9UNA4: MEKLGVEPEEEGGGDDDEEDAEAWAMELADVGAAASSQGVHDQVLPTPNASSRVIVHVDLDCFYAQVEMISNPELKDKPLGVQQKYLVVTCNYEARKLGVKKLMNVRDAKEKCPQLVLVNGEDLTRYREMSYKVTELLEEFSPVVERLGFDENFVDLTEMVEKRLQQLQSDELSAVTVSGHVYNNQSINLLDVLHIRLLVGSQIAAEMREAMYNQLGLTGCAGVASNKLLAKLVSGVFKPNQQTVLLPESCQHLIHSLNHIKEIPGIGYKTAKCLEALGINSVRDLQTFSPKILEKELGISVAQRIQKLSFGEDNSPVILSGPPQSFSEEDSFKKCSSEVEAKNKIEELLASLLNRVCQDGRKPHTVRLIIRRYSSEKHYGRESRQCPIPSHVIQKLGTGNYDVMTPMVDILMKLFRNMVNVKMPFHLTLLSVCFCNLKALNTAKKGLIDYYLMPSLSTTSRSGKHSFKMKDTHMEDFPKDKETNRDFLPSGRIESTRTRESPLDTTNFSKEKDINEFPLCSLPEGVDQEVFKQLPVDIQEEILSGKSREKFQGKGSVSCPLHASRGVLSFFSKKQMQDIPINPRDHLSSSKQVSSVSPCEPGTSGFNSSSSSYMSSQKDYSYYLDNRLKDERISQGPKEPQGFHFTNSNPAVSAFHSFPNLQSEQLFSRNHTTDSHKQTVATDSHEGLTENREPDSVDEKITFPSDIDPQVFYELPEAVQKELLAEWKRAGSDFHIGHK

About 4,000 (1%) of roughly 390,000 compounds were called active. Inconclusive results, whose numbers are uncertain, are shown with a selection of clear calls. The call rests on the fitted dose curve; in most records, active means well fitted inhibition curve with a large enough effect; inconclusive means small, poorly fitted or top-dose-only effect, or another doubt; inactive means no such curve, though single readings can be large or run the other way. Where the call is inconclusive, the potency comes from a doubtful curve fit.
What follows are compounds tested against DNA polymerase iota (Homo sapiens) (UniProt Q9UNA4) (assay: qHTS for Inhibitors of Polymerase Iota). Conditions: Pol iota fluorescent replication assay, 10 min; series mostly up to 115 µM; activity, negative = inhibition: at the top concentration.
Procedure, shortened: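 Fluorescent replication assay read twice, at 0 min and 10 min after adding 50 nM (final) substrate. Enzyme (10 nM) and compounds were first incubated 15 min at room temperature; enzyme-free buffer wells were negative controls.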
With `CC1CCN(C(=O)Cn2ncc3c4ccccc4n(C)c3c2=O)CC1` the Potency was inconclusive: 89.1 µM [inhibitor, partial curve]. In the case of `O=C(NN1C(=O)C2CCCCC2C1=O)c1ccco1` (stereo not drawn), the Potency is reported as inconclusive: 35.5 µM [inhibitor, partial curve, poor fit]. With `CCc1ccc(CNC(=O)c2ccc(NC(=O)N3CC(C)Sc4ccccc43)cc2)cc1` (stereo not drawn) the “activity, negative = inhibition” value was inactive: 1.69%. `COc1ccc(CC(=O)NCCC2=CCCCC2)cc1` was tested, and the Potency was inconclusive: 39.8 µM [inhibitor, full curve, poor fit]. In the case of `O=S(=O)(Nc1nc2n(n1)C(c1ccc(F)cc1)C=C(c1ccccc1)N2)c1ccccc1` (stereo not drawn), the “activity, negative = inhibition” value is reported as inactive: 30.2%. With `CS(=O)(=O)N1CCc2cc(C(=O)Nc3ccc(Cl)cc3)ccc21` the Potency was inconclusive: 50.1 µM [inhibitor, partial curve]. `CCN(CC)C(=O)c1ccc(-c2nnc(Nc3ccc(C(=O)NC)cc3)c3ccccc23)cc1` was tested, and the Potency was inconclusive: 63.1 µM [inhibitor, single point]. `CCN(CC)S(=O)(=O)c1ccc(N2CCN(c3ccccc3OC)CC2)c(N)c1` was tested, and the Potency was inconclusive: 79.4 µM [inhibitor, single point]. With `O=C(Nc1cc(Cl)cc(Cl)c1)c1ccc(F)c(S(=O)(=O)N2CCc3ccccc32)c1` the “activity, negative = inhibition” value was inactive: -14.1%. `N#CC(=C=[N-])c1nc2ccccc2nc1-[n+]1ccccc1` was tested, and the Potency was inconclusive: 50.1 µM [inhibitor, partial curve]. For `Cc1ccc(C(=O)NCc2ccc3c(c2)OCO3)cc1`, the Potency was inconclusive: 79.4 µM [inhibitor, partial curve]. For `CCCNC(=O)c1ccc(N2CCC3(CC2)CC(c2cccc(Br)c2)=NO3)c(NC(=O)c2ccc(Br)cc2)c1`, the Potency was inconclusive: 35.5 µM [inhibitor, single point]. With `CC(C)c1ccc(OCC(=O)NC(Cc2c[nH]c3ccccc23)C(=O)O)cc1` (stereo not drawn) the Potency was “inactive”. `COC(=O)c1ccccc1NC(=O)C1=CC(c2ccc(C)cc2)=NS(=O)(=O)N1C` was tested, and the “activity, negative = inhibition” value was inactive: 57.9%. For `O=C(CCS(=O)(=O)c1nc(-c2cccs2)cc(C(F)(F)F)n1)Nc1ccc(OC(F)(F)F)cc1`, the Potency was inconclusive: 35.5 µM [inhibitor, partial curve, poor fit]. With `Cc1nc(S/C(=C/c2ccc(-c3ccc(Cl)cc3)o2)C(=O)O)n[nH]1` the “activity, negative = inhibition” value was inactive: -4.76%. In the case of `COc1ccc(OC)c(/C=N/N(CCC#N)C2=NS(=O)(=O)c3ccccc32)c1`, the Potency is reported as inconclusive: 2 µM [inhibitor, partial curve, poor fit]. In the case of `O=C(c1c(F)cccc1F)N(Cc1ccccn1)C1CC1`, the Potency is reported as inconclusive: 35.5 µM [inhibitor, single point].

Reference: PubChem BioAssay AID588590 (National Center for Advancing Translational Sciences (NCATS), 2011)
Potency means the concentration at half of the fitted maximal effect.
